PubChem BioAssay AID1671195, Yale University – 2021

Test: 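Genes whose knockdown alters LDL uptake in liver cancer cells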 (primary screen)
Cells: human Huh7 hepatoma cells
Knock-down reagent: siRNA pool against human genes, 18 nM
Timing: about 2 to 2.5 days of knockdown, then 8 h LDL uptake
Challenge: DiI-labelled LDL at 30 µg/ml for 8 h, in lipoprotein-deficient serum medium
Measured: 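Per-cell DiI-LDL intensity by automated imaging; well means scaled to the plate median and given as a robust z-score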
Direction: robust z-score: higher = more LDL uptake after knockdown
Rule for the call: 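Active when two or more replicates show a robust z-score above 2 or below -2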
The whole screen tested about 22,000 reagents; this is a random part of them. Over the whole deposit, about 1,510 (6.9%) are marked active. 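Active includes knockdowns raising or lowering LDL uptake; positive z-scores mean more uptake, negative mean less.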 Unmarked entries are inactive.

target gene	robust z-score, replicate 1	robust z-score, replicate 2	robust z-score, replicate 3
RPL7AP27 (ribosomal protein L7a pseudogene 27)	-0.269	-0.19	-0.72
PCDHA3 (protocadherin alpha 3)	2.32 (active)	2.03	2
FAHD2A (fumarylacetoacetate hydrolase domain containing 2A)	1.65	0.128	1.03
DEFB130A (defensin beta 130A)	-1.98 (active)	-2.09	-1.91
TPSB2 (tryptase beta 2)	0.236	-0.167	-0.13
FGR (FGR proto-oncogene, Src family tyrosine kinase)	-0.784	-0.288	-0.325
YWHAB	-0.964	-1.35	-1.06
FAM131C2P (family with sequence similarity 131 member C2, pseudogene)	1.29	0.922	0.772
SEMA3F (semaphorin 3F)	0.84	0.666	-0.111
S100A7 (S100 calcium binding protein A7)	0.119	0.579	0.391
PPP2R1B (protein phosphatase 2 scaffold subunit Abeta)	-0.245	-0.663	0.0204
FCER2 (Fc epsilon receptor II)	-0.59	-1.09	-0.00198
TUB (TUB bipartite transcription factor)	1.21	-0.838	-0.76
OR5D18 (olfactory receptor family 5 subfamily D member 18)	0.909	0.175	-0.535
HMGB1P15 (high mobility group box 1 pseudogene 15)	-0.429	0.652	0.796
ZNF782 (zinc finger protein 782)	0.881	0.128	0.276
LOC440496 (retired record)	-0.608	-0.506	-0.642
DMBT1 (deleted in malignant brain tumors 1)	-0.836	0.0593	-0.39
MROH2B (maestro heat like repeat family member 2B)	-0.17	-0.157	-1.48
PEX26 (peroxisomal biogenesis factor 26)	-0.127	-0.107	0.418
CTSL3P (cathepsin L family member 3, pseudogene)	0.216	0.782	1.58
CENPA (centromere protein A)	-0.682	-1.32	-1.11
SPINK6 (serine peptidase inhibitor Kazal type 6)	0.2	0.21	0.575
LOC283157 (retired record)	-0.576	-0.417	-0.813
ITK (IL2 inducible T cell kinase)	-0.393	-0.00118	-0.721
TCF4 (transcription factor 4)	-0.127	0.692	0.93
LOC441297 (retired record)	-0.356	0.154	-0.016
TTPAL (alpha tocopherol transfer protein like)	0.937	0.726	0.119

Active calls, among the entries above:
target gene	robust z-score, replicate 1	robust z-score, replicate 2	robust z-score, replicate 3
PCDHA3 (protocadherin alpha 3)	2.32 (active)	2.03	2
DEFB130A (defensin beta 130A)	-1.98 (active)	-2.09	-1.91
